Article PMC12156041, “Design, Synthesis and Antiplasmodial Activities of a Library of Fluorine-Based 3-Benzylmenadiones” (Molecules, 2025)
No dose or concentration is given here for some results.

System: P. berghei (GFP ANKA malaria strain)
Test: In vitro efficacy testing with P. berghei, 24 h (species shift assay)
Format: cell-based
Details: 24 h assays

Row | SMILES | Species Shift Pf versus Pb
1 | CC1=C(Cc2ccc(C(F)(F)F)cc2)C(=O)c2ccc(F)cc2C1=O [Cpnd 7-F-PD] | 0.9
2 | CC1=C(Cc2ccc(F)c(C(F)(F)F)c2)C(=O)c2ccccc2C1=O [A-b-9, 4′-fluoro-3′-trifluoromethyl-benzylmenadione] | 1.0
3 | CC1=C(Cc2ccc(C(F)(F)F)cc2)C(=O)c2cc(F)ccc2C1=O [Cpnd 6-F-PD] | 1.6
4 | CCN(CC)CCCC(C)Nc1ccnc2cc(Cl)ccc12 (centres unmarked) [CQ, reference compound] | 3.3
5 | CC1=C(Cc2c(F)c(F)c(F)c(F)c2F)C(=O)c2ccccc2C1=O [A-b-47] | 1.4
